Screening data, single-dose tests

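Phenotypic screen: M. tuberculosis growth, cholesterol and DPPC medium, 4 days; the read-out is not stated. Compounds at 50 µM. The record gives no direction; compounds that gave an IC50 in retests scored well above the rest, so higher reads as more growth inhibition. Size under these conditions: about 69,000 compounds, about 370 of them at 50% or above in at least one test.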

Results are given as percent effect.
How 0% and 100% were set is not recorded. Most values in the screen are low, and negative values occur.
This is an unselected part of the compounds tested.
Two or more numbers in one place are separate tests of the same structure; such repeats can differ widely.

Result for CCc1ccc(O)c(C(=O)N2CCN(CC(=O)N(C)C)CC2)c1 was -1.797%. Result for COc1ccc(CN2C[C@@H](CN(C)C)[C@@H](CO)C2)cc1CN1CCCC1 was -13.14%. O=C(c1c2c(N3CCOCC3)ncnc2n2ccccc12)N1CCCC1 gave -0.1599%. With Cc1cc(N2CC[C@H](O)C2)n2nc(C)c(C)c2n1 the screen gave -14.14% and -2.749%.

With Cl.c1cnc2c(c1)cc([C@@H]1CCCO1)n2CCN1CCOCC1 the screen gave -14.86%. Result for O=C(COC1CCCCC1)NS(=O)(=O)c1ccc2c(c1)OCCCO2 was -15.64%. CCOCc1nc(-c2ccc(F)cc2Cl)n(C)n1 gave 13.26%. Cc1cc(O)n2nc(C3CCN(C(=O)c4ccccn4)CC3)cc2n1 gave 1.255% and -9.325%.

Cn1cc(NC(=O)N2CCC(NS(C)(=O)=O)CC2)ccc1=O gave -16.99%. Cc1noc(C)c1-c1ccc(C2CCCN2C(=O)c2cccnn2)nc1 (centres unmarked) gave -25.47%. With O=C(O)C(F)(F)F.O=C(c1ccccc1F)N1CCC2(CC1)CC(Oc1ccccn1)CO2 (centres unmarked) the screen gave -9.194%. For O=C(O)C(F)(F)F.[H][C@@]12CN(C(=O)c3ccccc3C)C[C@]1([H])OCCN2c1ncccn1 the result was -37.06%.

Result for Cc1cnn(CCNCc2nc(CNC(=O)c3ccccc3)no2)c1 was -12.03%. With CCc1nccn1-c1cccc(C2CCCN2S(=O)(=O)N(C)C)n1 (centres unmarked) the screen gave -7.652%. For CCc1ccc(CN2CCc3ncnc(N4CCOCC4)c3CC2)o1.O=C(O)C(F)(F)F the result was -4.316%. COc1cccc(-c2nc3c([nH]2)CCNC3)c1F gave 12.4%.

With CCn1nc(C)c(CCNC(=O)c2cccc(-n3cccn3)c2)c1C the screen gave -20.46%. COc1cc(C(=O)Nc2c(C)noc2C)ccc1C read -4.863%. CCN(Cc1nc(COC)no1)Cc1cccnc1NC gave -10.44%. With CCc1n[nH]c(C2CN(Cc3nc(C4CC4)no3)CCO2)n1 (centres unmarked) the screen gave -5.432%.

Result for CC(C)N1CC2(CCC1=O)CCN(C(=O)c1cc(F)ccc1Cl)CC2 was 20.03%. With CCOCC1CN(CC2CC2)Cc2nn(CC3CC3)cc21.O=C(O)C(F)(F)F (centres unmarked) the screen gave -7.992%. Cc1nccn1CCCNc1ccc(Cl)c(C#N)n1 gave 5.843%. CCOCCN1CCN(CCC(=O)N2CCCCC2)CC1 gave 4.911%.

O=C1C(NCc2nnc3n2CCCC3)CCN1c1ccccc1F (centres unmarked) read 5.567%. Result for Cc1nc(CN2CCN(c3ccc4nncn4n3)C(C)C2)oc1C (centres unmarked) was 1.511%. Result for CCOC(=O)N1CCN(C(=O)c2cc(-c3ccccc3F)on2)CC1 was -3.649%. Result for OCC(O)CSCc1nnc(-c2cccc(F)c2)o1 (centres unmarked) was 6.02%.

O=C1OCCC1N1CCN(C(=O)Cc2ccccc2Cl)CC1 (centres unmarked) read -30.23%. Result for O=C(O)C(F)(F)F.[H][C@@]12CN(Cc3ccsc3)CCO[C@]1([H])CN(C(=O)C1CC(F)(F)C1)C2 was -9.721% and -5.48%. CC(C)CCN1CCN(Cc2nc(C3CC3)no2)CC1 gave 11.95% and 8.298%. With CCN1CCN(CC(O)c2ccc(Br)cc2)CC1 (centres unmarked) the screen gave -0.8128% and -14.7%.

O=C(c1ccn(-c2ccc(F)cc2)n1)N(CCO)Cc1cccnc1 gave -34.32%. [H][C@]12CC[C@](O)(c3ccc(C)cc3)[C@@]1([H])CN(S(=O)(=O)CC)C2 read 0.4002%. COc1ccccc1OCCNC(=O)NCC(C)C gave -10.69%.

Some entries from above, unchanged:

{"structure": "CC(C)N1CC2(CCC1=O)CCN(C(=O)c1cc(F)ccc1Cl)CC2", "percent effect": 20.03}
{"structure": "Cc1nccn1CCCNc1ccc(Cl)c(C#N)n1", "percent effect": 5.843}

Source: ChEMBL document CHEMBL3988442, “University of Dundee, Small-Polar-MMV Screening Library” (2021).